Test results: patent US20250101497

Test system: T1, phiFa_44 RNA polymerase (QKE11339.1) (Thermus phage phiFa)
T1 sequence: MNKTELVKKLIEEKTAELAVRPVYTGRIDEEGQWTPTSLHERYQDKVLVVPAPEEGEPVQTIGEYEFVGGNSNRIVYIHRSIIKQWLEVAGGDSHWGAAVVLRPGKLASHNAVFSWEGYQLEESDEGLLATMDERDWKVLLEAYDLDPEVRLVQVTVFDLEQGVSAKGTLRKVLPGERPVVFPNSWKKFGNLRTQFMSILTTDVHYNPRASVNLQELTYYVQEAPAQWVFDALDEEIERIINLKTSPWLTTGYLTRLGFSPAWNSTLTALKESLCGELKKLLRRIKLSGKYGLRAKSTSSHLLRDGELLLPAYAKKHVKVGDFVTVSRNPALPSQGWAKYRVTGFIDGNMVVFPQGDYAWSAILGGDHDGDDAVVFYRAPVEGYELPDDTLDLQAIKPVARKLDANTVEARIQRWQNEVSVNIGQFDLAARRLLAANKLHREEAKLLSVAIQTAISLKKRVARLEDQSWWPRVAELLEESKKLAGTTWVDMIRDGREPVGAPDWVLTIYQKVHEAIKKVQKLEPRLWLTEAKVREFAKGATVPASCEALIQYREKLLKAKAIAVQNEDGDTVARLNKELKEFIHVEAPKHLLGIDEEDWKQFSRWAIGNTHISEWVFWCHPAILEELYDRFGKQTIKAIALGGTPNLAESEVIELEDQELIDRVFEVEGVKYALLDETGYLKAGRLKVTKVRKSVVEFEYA
Test: activity assay
Settings: purified recombinant protein

For “AATTCTAATACGACTCACTATAGTATCCGGTGGGCCAGCCAGCGTACCGTCCTCGAGGCTGTGGATTGCGCGGCTTCCCGCCCGCAGCCGCGCATCTAGTCCTCCCGCCACCACCACCTCTGCAGGAAGAGGTGGGCGAAGAGACGAAGAGAGGTGAAAGAGAGAAGAGGCGAAGGCCGGGTGTCCCGCGCCCGGCTCGCCTTACGGTGCCACGCCACCCCGCTCGCGCAAGGCTCCGCGCGGAGCGCGGCCCCTTCGGGCTTACGGCCTTGCGCTCGCGGGGACCCCGGCGTGGCAGGGCTCCGCCCCGAGCCGGGCGCGTAGAGGACACCCGGCTCAAGGAGGTCAAAGATGAACAAGACCGAACTTGTCAAAAAGTTGATTGAAGAGAAGACGGCGGAGTTGGCTGTTAGGCCGGTGTACACCGGTCGAATCGACGAAGAAGGTCAGTGGACTCCGACTTCTCTG (double strand) [phiFa phage dsDNA template]”, the “activity on this sequence” value (in vitro transcription with rNTPs gives RNA product, 1x isothermal amplification buffer, 65 C) was “active”.

“CGATGGCCGTAGATAAGGCGCCCGGGGACGACCACGTCAAGGCGCAGTTC [Cy3 ssDNA template]” was tested, and the “activity on this sequence” value (IVT forms RNA:DNA duplex, template band shift abolished by RNase H, 2 mM MgCl2, 35 mM NaCl, pH 8.8, 65 C, label: 5' Cy3, single-stranded DNA) was “active”.

“GCGCTCCAAAAGCAGGGGCGGCAAGTCCAGTCTCCAGACTTGCCGCCGAGTGTACCTGCTTGCTACAGCCCTAATTATACCACAAACGCC [ssDNA template A]” was tested, and the “activity on this sequence” value (IVT gives clear ssRNA transcript of about 75-80 nt, 250 nM protein, 100 nM template, 65 C, single-stranded DNA) was “active”.

Where a protein sequence is shown, tags need not be part of it. The exact form of at least one protein or probe is not confirmed.
